# According to PubChem BioAssay AID540276 (National Center for Advancing Translational Sciences (NCATS), 2011):
# Several values for one entry are separate records, joined by “and”; a condition that tells them apart may be missing. Equal entries are not always repeated. About 5,400 (1.8%) of roughly 300,000 compounds were called active. The shares of active, inactive and inconclusive entries below differ from those in the screen. Calls follow the shape of the full dose curve; tested in HEK293 cells. Potencies of inconclusive entries are doubtful fits and often do not repeat.
# Assay: qHTS for inhibitors of binding or entry into cells for Marburg Virus
# Details: Marburg virus pseudotyped entry inhibition, cell reporter; activity change, negative = inhibition: at 37.8 µM (top of the series) unless noted
# % is scaled to controls: 0 for no effect and ±100 for the full control effect; potency is read from the fitted curve at half-maximal effect.
Compound,Potency,"activity change, negative = inhibition"
S=C(Nc1ccccc1)c1ccccn1,"inconclusive: 35.5 µM [inhibitor, partial curve, poor fit]",
O=C(NCc1cccnc1)c1sc2ccccc2c1Cl,"inconclusive: 0.58 µM [inhibitor, single point]",
CCN(CC)c1ccc(/C=N/NC(=O)c2cccc(N3CCCC3=O)c2)cc1,"inconclusive: 35.5 µM [activator, single point]",
CCOc1ccc(-c2nnc(NC3=NCCCCC3)o2)cc1,"inconclusive: 35.5 µM [inhibitor, single point]",
CN1CCN(S(=O)(=O)c2cc(C(F)(F)F)ccc2Cl)CC1,,inactive: 20.8%
OC[C@H]1O[C@H](C#Cc2ccccc2)C=C[C@@H]1O,inactive,
Cc1ccc(NC(=O)CCNC(=O)c2ccccc2Cl)cc1S(=O)(=O)N(C)C,,inactive: 0.742%
CC(=O)N1c2c(cc(Br)cc2S(=O)(=O)Nc2ccccc2C)CC1C (stereo not given),"inconclusive: 5.62 µM [inhibitor, single point]",
Cc1sc2nc(C3CC3)nc(NCCNS(=O)(=O)c3ccccc3)c2c1C,"inconclusive: 18.3 µM [inhibitor, single point]",
COc1ccccc1OCc1nnc(SCC(=O)Nc2ccc(C)cc2)n1C,,inactive: 11%
COc1ccc2[nH]c(C)c(CCNCc3cc(OC)c(OC)c(OC)c3)c2c1,,inactive: -29.7% [at 46.1 µM]
Cc1cc(NC(=O)CC2CCCC2)ccc1Br,"inconclusive: 2.82 µM [inhibitor, full curve, poor fit]",
CC[n+]1c(/C=C2/C=C(C)CC(C)(C)C2)sc2ccc(OC)cc21,"inconclusive: 35.5 µM [inhibitor, single point]",
Cc1ccccc1-c1nn(-c2ccc(F)cc2F)cc1CNCCN(C)C,,inactive: -6.8% [at 46.1 µM]
O=[N+]([O-])c1ccccc1/C=N/NC1=NCCN1,,inactive: -1.81%
Cc1ccc(-c2c(C)n3c4c(=O)n(C)c(=O)n(C)c4nc3n2CCCO)cc1,"inconclusive: 20 µM [inhibitor, partial curve, poor fit]",
CSc1ncc(Cl)c(C(=O)O)n1 (tested in a mixture with another compound),"inconclusive: 0.355 µM [activator, partial curve, poor fit]",
CCCC(C)NC(=O)c1ccc2[nH]c3c(c2c1)CC(C)CC3 (stereo not given),,inactive: -16.4%
CCOC(=O)Cn1c(-c2nonc2NC(=O)c2ccccc2F)nc2ccccc21,active: 0.282 µM,
CCOc1ccc(OCC(=O)c2c(O)c3ccccc3oc2=O)cc1,,inactive: -9.94%
C=CCNc1nnc(S[C@@H]2CC(=O)N(c3ccc(OC)cc3)C2=O)s1,,inactive: -7.86%
CCOc1ccc(NC(=S)N2CCC(NC(=O)c3ccccc3C)CC2)cc1,"inconclusive: 25.1 µM [activator, single point]",
O=C(NC(NNc1ccc([N+](=O)[O-])cc1)(C(F)(F)F)C(F)(F)F)c1ccc(Cl)cc1,"inconclusive: 29.1 µM [inhibitor, single point]",
Cc1sc2ncn(CC(=O)Nc3ccc(C(F)(F)F)cc3)c(=O)c2c1S(=O)(=O)N1CCN(C)CC1,"inconclusive: 35.5 µM [inhibitor, single point]",

# Three structures already listed, ordered by molecular weight, low to high:
Compound,Potency,"activity change, negative = inhibition"
C=CCNc1nnc(S[C@@H]2CC(=O)N(c3ccc(OC)cc3)C2=O)s1,,inactive: -7.86%
CC(=O)N1c2c(cc(Br)cc2S(=O)(=O)Nc2ccccc2C)CC1C (stereo not given),"inconclusive: 5.62 µM [inhibitor, single point]",
O=C(NC(NNc1ccc([N+](=O)[O-])cc1)(C(F)(F)F)C(F)(F)F)c1ccc(Cl)cc1,"inconclusive: 29.1 µM [inhibitor, single point]",

# Next part.

Compound,Potency,"activity change, negative = inhibition"
COc1ccc(N(CC(=O)NC2CCCCC2)C(=O)CCC(=O)Nc2nc(C)cs2)cc1,"inconclusive: 11.2 µM [inhibitor, partial curve, poor fit]",
O=C(NNc1nc2cc3c(cc2s1)OCO3)c1ccc(F)cc1,,inactive: 8.19%
O=C(/C=C/Nc1cccc([N+](=O)[O-])c1)c1ccco1,"inconclusive: 29.1 µM [inhibitor, single point]",
COc1ccc(C)cc1NC(=O)C1CCN(S(=O)(=O)c2cccc3nonc23)CC1,"inconclusive: 5.62 µM [activator, single point] and inconclusive: 35.5 µM [inhibitor, single point]",
COc1ccc(-c2cc(C(=O)NNC(=O)c3csc(N4CCOCC4)n3)c3ccccc3n2)cc1OC,"inconclusive: 8.91 µM [inhibitor, partial curve, poor fit]",
N#Cc1nc(-c2ccco2)oc1NCc1ccco1,,inactive: 10.3%
COc1cc(/C=C2\SC(=O)NC2=O)ccc1OCC(=O)N1CCOCC1,"inconclusive: 0.631 µM [activator, partial curve, poor fit]",
CCOC(=O)CC1C(=O)NCCN1C(=O)c1ccc(Cl)c(Cl)c1 (stereo not given),,inactive: -1.41% [at 46.1 µM]
Nc1ccccc1C(=O)N1CCCC1,"inconclusive: 1.41 µM [activator, partial curve, poor fit]",
COc1ccc(-n2nc(C(=O)NCC(=O)NCC3COc4ccccc4O3)c3ccccc3c2=O)c(OC)c1 (stereo not given),"inconclusive: 35.5 µM [inhibitor, partial curve, poor fit]",
Cc1cccc(NC(=O)c2cnccn2)c1,,inactive: -14.3%
Cc1ccc(/C=N/NC(=O)c2ccncc2)o1,,inactive: 13.8%
CC(C)(C)C(=O)C(CO)(Oc1ccc(Cl)cc1)n1cncn1 (stereo not given),,inactive: 3.42%
COc1ccc(CN2CCC(n3nccc3NC(=O)CCOc3ccccc3)CC2)cc1C,"inconclusive: 35.5 µM [inhibitor, single point]",
Cc1ccc(Nc2nc(-c3ccc(S(=O)(=O)N4CCCC4)cc3)cs2)cc1C,"inconclusive: 9.2 µM [inhibitor, partial curve]",
COc1cc(CN2CC(=O)N(c3ccc(C)cc3)C2=S)cc(OC)c1OC,"inconclusive: 7.08 µM [inhibitor, partial curve, poor fit]",
Cc1ccc(S(=O)(=O)c2nc(-c3ccccc3)oc2NCCCN2CCOCC2)cc1,,inactive: 2.49%
NC(=O)C1CCN(C(=O)c2cc(Cl)c3c(c2)OCCO3)CC1,"inconclusive: 35.5 µM [activator, single point]",
O=C(Cn1cnc([N+](=O)[O-])n1)c1ccccc1,,inactive: 2.76%
CC(Oc1ccc(Cl)cc1Cl)c1ccn[nH]1 (stereo not given),"inconclusive: 35.5 µM [inhibitor, single point]",
O=C(/C=C1\NC2(CCCC2)Cc2ccccc21)N1CCOCC1,,inactive: -10%
CCOC(=O)c1c(NC(=O)CSc2nc3cc(Cl)ccc3s2)sc(C(C)=O)c1C,,inactive: 24.8%
Cc1ccc(-n2ncc3c2CC(C)(C)CC3NC(=O)c2ccccn2)cc1 (stereo not given),"inconclusive: 8.91 µM [inhibitor, partial curve, poor fit]",
Cc1ccccc1C(=O)NC(NC(=S)Nc1ccc(S(N)(=O)=O)cc1)C(Cl)(Cl)Cl (stereo not given),"inconclusive: 3.98 µM [activator, single point]",

Compound,Potency,"activity change, negative = inhibition"
CCc1nc(N2CCN(S(=O)(=O)c3ccc(Br)cc3)CC2)c2c(C)c(C)sc2n1,,inactive: 5.86%
COCCNc1nc(SCC(=O)N2CCN(c3ccccc3OC)CC2)nc2ccccc12,"inconclusive: 11.6 µM [inhibitor, partial curve, poor fit]",
CCCCn1c(N)c(N(CC)C(=O)c2cc(S(=O)(=O)N3CCCCCC3)ccc2OC)c(=O)[nH]c1=O,,inactive: 25.3%
O=C1NC(=O)C(c2ccccc2)(c2ccccc2)N1,"inconclusive: 2.51 µM [inhibitor, partial curve, poor fit]",
COc1cccc(/C=C/C(=O)NNC(=O)c2ccccc2)c1OC,"inconclusive: 3.55 µM [activator, partial curve, poor fit]",
COc1cc(/C=C2\SC(=O)N(CCN)C2=O)ccc1OS(=O)(=O)c1cc(C)ccc1C,"inconclusive: 35.5 µM [inhibitor, single point]",
COc1ccc(OC)c(NC(=O)c2nc(SCc3ccc(F)cc3)ncc2Cl)c1,,inactive: 3.11% [at 46.1 µM]
COc1cc2c(cc1OC)C(c1c(O)n(CCc3ccccc3)c(=S)[nH]c1=O)NCC2 (stereo not given),,inactive: 7.85% [at 46.1 µM]
Cc1nc2ccc(NC(=O)c3ccc4ccccc4n3)cc2s1,"inconclusive: 11.2 µM [activator, partial curve, poor fit]",
CC(C)n1c(=NC(=O)c2ccco2)c(C#N)cc2c(=O)n3ccccc3cc21,,inactive: -5.93%
CCC(C)(C)NC(=O)CN(CC1CCCO1)C(=O)CNS(=O)(=O)c1ccccc1 (stereo not given),"inconclusive: 35.5 µM [inhibitor, single point]",
CCc1nc(N2CCN(C(=O)c3ccco3)CC2)c2c3c(sc2n1)CCCC3,"inconclusive: 1.83 µM [inhibitor, full curve, poor fit]",
COC(=O)c1ccccc1NC(=O)COc1ccc2c(c1)OCO2,,inactive: 2.09%
CN(C(=O)COC(=O)CCC(=O)c1ccc(Cl)cc1)c1c(N)n(Cc2ccccc2)c(=O)[nH]c1=O,"inconclusive: 0.398 µM [inhibitor, single point]",
COc1ccc(-c2cc(C(F)(F)F)nc(SCC(=O)Nc3ccc(C(C)=O)cc3)n2)cc1,"inconclusive: 35.5 µM [inhibitor, single point]",
COc1ccc(-n2c(-c3ccco3)nc3ccccc3c2=O)cc1,,inactive: -19.6% [at 46.1 µM]
O=C(O)C(=O)/C(=C\c1ccc(Cl)cc1)c1ccc2ccccc2n1,"inconclusive: 5.62 µM [activator, single point]",
CC(C)CN(C(=O)COC(=O)CSc1ccccc1F)c1c(N)n(Cc2ccccc2)c(=O)[nH]c1=O,"inconclusive: 10 µM [activator, partial curve, poor fit]",
Cc1cc(OCC(=O)Nc2ncn[nH]2)c(C)c(C)c1Br,"inconclusive: 0.562 µM [activator, full curve, poor fit]",
CCOc1ccc(C(=O)NC(=S)NCc2cccnc2)cc1,"inconclusive: 6.31 µM [activator, single point]",
C=CCN1C(=O)CN=C1Nc1cc(C)cc(C)c1,"inconclusive: 17.8 µM [inhibitor, partial curve]",
COc1cc(C(=O)N(C)Cc2cccc(OC)c2OC)ccc1OCC(=O)Nc1cccc(C(F)(F)F)c1,"inconclusive: 22.4 µM [inhibitor, single point]",
